The source of these data is paper PMC7862700.

Common to all, as to experiment: DAPPL (digital affinity profiling via proximity ligation, sequencing)
Details in all cases: 10 mM Tris-HCl pH 7.5, 50 mM NaCl, 1 mM DTT, 4% glycerol, room temperature, 30 min; GST-TFs on glutathione beads, 16-mer random dsDNA library, 0.1% …; high values mean tight binding; double strand, one strand shown; scale: fold enrichment (6-mer frequency, TF over GST control)

One experiment deals with T1, GABPA (UniProt Q06546).
T1 sequence: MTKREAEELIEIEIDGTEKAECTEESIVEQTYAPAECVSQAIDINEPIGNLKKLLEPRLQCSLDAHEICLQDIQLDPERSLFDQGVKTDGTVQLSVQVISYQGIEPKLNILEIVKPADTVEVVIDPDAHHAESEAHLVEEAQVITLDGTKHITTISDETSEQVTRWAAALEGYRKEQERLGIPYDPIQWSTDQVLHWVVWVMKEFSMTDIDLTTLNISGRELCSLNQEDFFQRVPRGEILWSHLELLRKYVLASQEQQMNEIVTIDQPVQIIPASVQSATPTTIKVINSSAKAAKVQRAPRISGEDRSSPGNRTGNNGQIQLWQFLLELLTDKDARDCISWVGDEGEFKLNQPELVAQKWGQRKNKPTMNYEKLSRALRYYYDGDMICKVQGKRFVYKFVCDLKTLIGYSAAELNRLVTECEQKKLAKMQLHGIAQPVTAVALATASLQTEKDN

Another experiment has as its target T2, ETS1 (UniProt P14921).
T2 sequence: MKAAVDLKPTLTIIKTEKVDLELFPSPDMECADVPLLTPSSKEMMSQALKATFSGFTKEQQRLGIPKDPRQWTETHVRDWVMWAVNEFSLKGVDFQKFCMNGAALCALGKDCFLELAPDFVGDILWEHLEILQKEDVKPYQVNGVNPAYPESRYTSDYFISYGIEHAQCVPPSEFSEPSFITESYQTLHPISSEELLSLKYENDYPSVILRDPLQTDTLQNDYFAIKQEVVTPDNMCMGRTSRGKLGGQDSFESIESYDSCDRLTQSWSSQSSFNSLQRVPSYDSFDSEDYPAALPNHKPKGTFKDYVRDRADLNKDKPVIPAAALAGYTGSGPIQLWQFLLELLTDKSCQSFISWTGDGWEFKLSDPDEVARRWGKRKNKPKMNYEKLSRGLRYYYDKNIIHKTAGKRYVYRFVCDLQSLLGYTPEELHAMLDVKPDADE

The target of the next experiment is T3, SPDEF (UniProt O95238).
T3 sequence: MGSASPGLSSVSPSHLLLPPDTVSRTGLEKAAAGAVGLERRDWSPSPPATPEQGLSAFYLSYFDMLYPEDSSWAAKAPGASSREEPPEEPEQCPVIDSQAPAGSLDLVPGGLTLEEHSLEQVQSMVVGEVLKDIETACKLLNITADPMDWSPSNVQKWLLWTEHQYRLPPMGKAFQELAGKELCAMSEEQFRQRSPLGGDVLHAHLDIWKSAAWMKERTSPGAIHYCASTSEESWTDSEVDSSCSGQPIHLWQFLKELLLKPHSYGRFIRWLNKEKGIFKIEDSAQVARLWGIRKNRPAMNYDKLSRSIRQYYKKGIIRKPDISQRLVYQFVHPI

The entries are a selection whose mix differs from that of the whole data set. For part of these data: At the low end of the ranking the order means little. The list shows a part of the results. For part of these data: The exact form of the protein is not confirmed.

For GTTGAG, the binding signal with GABPA amounted to 0.614; with ETS1, 0.567; with SPDEF, 0.695.
The matching figures for GTCGCC: 0.862, 0.878 and 0.886.
The corresponding values for AGCCCG are 0.943, 0.869 and 0.825.
For TCAGAG, the binding signal with GABPA worked out at 0.79; with ETS1 it was 0.778; with SPDEF it was 0.731.
The corresponding values for GACGTA are 0.743, 0.722 and 0.756.
The corresponding values for CGGACT are 0.84, 0.778 and 0.886.
As to GATAGG, the binding signal was determined as 0.812 in the experiment with GABPA, 0.802 in the experiment with ETS1 and 0.799 with SPDEF.
Regarding AGTGGG, the binding signal with GABPA amounted to 0.581; with ETS1, 0.583; in the experiment with SPDEF, 0.586.
With TCGGGT, the binding signal with GABPA came out at 0.549; with ETS1 it was 0.664; in the experiment with SPDEF, 0.621.
The corresponding values for GTAGGC are 0.648, 0.688 and 0.682.
The corresponding values for TGGAGT are 0.504, 0.574 and 0.521.
The corresponding values for GCCGTG are 0.254, 0.233 and 0.236.
With GATCGT, the figures for the binding signal with GABPA, with ETS1 and in the experiment with SPDEF were 0.418, 0.407 and 0.426, respectively.
The corresponding values for TGAAGT are 0.77, 0.728 and 0.794.
Consider GAACGT, for which the binding signal is 0.384 in the experiment with GABPA, 0.408 with ETS1 and 0.408 with SPDEF.
Take AAGGAC: the binding signal with GABPA amounted to 0.906; in the experiment with ETS1, 0.854; with SPDEF, 0.885.
For AGAGGT, the binding signal in the experiment with GABPA stood at 0.827; with ETS1, 0.782; in the experiment with SPDEF it was 0.898.
The matching figures for TCGTGC: 0.831, 0.769 and 0.773.
The corresponding values for AGAGCG are 0.43, 0.489 and 0.449.
The corresponding values for AGTGAT are 0.95, 0.874 and 0.842.
For GGGCAG, the binding signal in the experiment with GABPA was determined as 0.548; with ETS1, 0.537; with SPDEF it was 0.549.
The matching figures for CCCAGT: 0.626, 0.663 and 0.621.
The corresponding values for CGGGGA are 0.43, 0.394 and 0.426.
The matching figures for GTCAGC: 0.748, 0.685 and 0.724.
Take GAGCGC: the binding signal stood at 0.654 in the experiment with GABPA, 0.643 with ETS1 and 0.548 with SPDEF.
The corresponding values for CAAGCG are 0.87, 0.903 and 0.815.
The corresponding values for GGCGGA are 0.36, 0.355 and 0.409.
As for GGGAAC, the binding signal was found to be 0.633 in the experiment with GABPA, 0.662 with ETS1 and 0.691 with SPDEF.
The matching figures for GACAAA: 0.964, 0.961 and 0.922.
The matching figures for GAGTTA: 0.572, 0.55 and 0.6.
The matching figures for GAATCG: 0.692, 0.607 and 0.575.
For the sequence TGAGCC, the results for the binding signal with GABPA, with ETS1 and with SPDEF were 0.9, 0.833 and 0.738, respectively.
The corresponding values for CGTAGA are 0.71, 0.725 and 0.762.
The matching figures for GACAGT: 0.507, 0.437 and 0.464.
For GGGTAG, the binding signal with GABPA was found to be 0.773; with ETS1, 0.649; with SPDEF, 0.663.
The matching figures for GCGGTG: 0.529, 0.483 and 0.54.
As to ATCAGT, the results for the binding signal with GABPA, with ETS1 and with SPDEF were 0.835, 0.805 and 0.909, respectively.
The corresponding values for GGACGA are 0.65, 0.695 and 0.652.
As to GTCGCT, the binding signal came to 0.845 with GABPA, 0.708 in the experiment with ETS1 and 0.713 in the experiment with SPDEF.
The corresponding values for GGAGAG are 0.268, 0.271 and 0.26.
The corresponding values for CGTGCT are 0.872, 0.808 and 0.805.
The corresponding values for AGGGGT are 0.907, 0.75 and 0.789.
As for TGCGTG, the figures for the binding signal in the experiment with GABPA, with ETS1 and with SPDEF were 0.586, 0.632 and 0.671, respectively.
The corresponding values for CTCGGA are 0.858, 0.791 and 0.806.
In the case of GGGGAG, the binding signal in the experiment with GABPA turned out to be 0.426; with ETS1, 0.373; with SPDEF it was 0.378.
The corresponding values for AGCCAG are 0.483, 0.45 and 0.43.
Consider CAGGTA, for which the binding signal with GABPA worked out at 0.849; with ETS1, 0.81; with SPDEF, 0.882.
GAGTAG: the figures for the binding signal with GABPA, in the experiment with ETS1 and with SPDEF were 0.505, 0.483 and 0.445, respectively.
The matching figures for GCAGTC: 0.455, 0.442 and 0.427.
The matching figures for GACGGG: 0.407, 0.462 and 0.452.
On to GAGACT, for which the figures for the binding signal with GABPA, with ETS1 and in the experiment with SPDEF were 0.357, 0.422 and 0.37, respectively.
The corresponding values for TGCGAG are 0.936, 0.912 and 0.879.
As to CAAGAG, the binding signal with GABPA worked out at 0.818; in the experiment with ETS1, 0.765; with SPDEF, 0.725.
The matching figures for AGACGC: 0.77, 0.695 and 0.659.
The matching figures for CACGTG: 0.634, 0.631 and 0.578.
The matching figures for GCACCG: 0.689, 0.698 and 0.715.
Take GGTCAT: the binding signal in the experiment with GABPA came out at 0.749; with ETS1 it was 0.877; with SPDEF, 0.854.
The corresponding values for GTCGTA are 0.671, 0.626 and 0.606.
On to AGTGGA, for which the binding signal in the experiment with GABPA was determined as 0.755; with ETS1 it was 0.778; in the experiment with SPDEF, 0.663.
The corresponding values for TAGTCG are 0.499, 0.446 and 0.48.
